At least one structure is not confirmed: it was looked up by name or label, or the drawing left a doubt.
Test system: imhMSC and prhMSC
Settings: inhibitor 30 minutes prior to and during 8 hours FasL
Experimental: MSCs are most susceptible to cell death via the Fas death pathway. […] Cells were also treated with a low concentration of the protein synthesis inhibitor cycloheximide (CHX) in addition to FasL. Cycloheximide, being a protein synthesis inhibitor, increases cell stress, imitating the starvation stress seen in vivo in a wound setting.
After preparation of coated surfaces and prior to seeding of MSC, neutralizing antibodies to the EGFL and FNL domains were added for 24 hours Immortalized hMSC were then seeded for 24 hours, kept treated or untreated with FasL for 8 hours, followed by a FLICA assay to test for caspase3 activation.
We next studied whether TNC contributes to survival of MSCs by sequestering FasL and prevention of FasL from binding its receptor Fas on MSC. We grew MSCs inside two cloning cylinders placed in wells of a 6-well dish, enclosing areas without any ECM, or with Collagen I and TNC, on which imhMSC were grown. One well had Collagen I and TNC coating surrounding the cloning cylinders, covered with media and FasL. The second well had only media with FasL surrounding the cloning cylinders, with no TNC.
The inhibitors were present during the entire 8 hours of FasL treatment, after which a FLICA assay was performed.

O=c1cc(N2CCOCC2)oc2c(-c3ccccc3)cccc12 [LY294002]
effect on survival advantage of TNC and Collagen I in the presence of FasL: blocked the survival advantage
